# From publication PMC4124019
# Where two headings read alike, the source gives them in different places. No constants are given. Whether binding was seen depends on the method and setting. Binding seen in cells or lysates may run through a third protein. Some entries that bind do so weakly or less than the wild type. Tags and fused reporters may be left off the sequences shown.
# T1: TNFR-associated death domain (TRADD), HA-tagged (UniProt Q3U0V2)
# T1 sequence: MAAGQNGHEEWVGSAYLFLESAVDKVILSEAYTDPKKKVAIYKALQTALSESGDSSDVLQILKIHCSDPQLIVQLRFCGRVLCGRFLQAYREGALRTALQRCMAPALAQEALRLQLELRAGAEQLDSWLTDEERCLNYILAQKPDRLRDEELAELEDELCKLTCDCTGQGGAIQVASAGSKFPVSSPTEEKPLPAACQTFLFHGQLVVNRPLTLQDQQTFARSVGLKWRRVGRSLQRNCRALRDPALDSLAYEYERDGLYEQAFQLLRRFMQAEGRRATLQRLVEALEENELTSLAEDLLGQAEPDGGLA
# Columns and labels:
# [1] = molecular target: T1, TNFR-associated death domain (TRADD), HA-tagged; test: co-IP; HEK293T transfected for 18 hrs with TRADD and TRAF6 vectors only (no MAL); lysate in IP buffer; precipitated with anti-HA (TRADD) or anti-TRAF6, Western blot
# [2] = molecular target: T1, TNFR-associated death domain (TRADD), HA-tagged; test: as above; remark: listed apart in the source
binder,measurement,setting,value
"TNF receptor-associated factor 6 (TRAF6), transfected (Fig. 7A-C) (protein, UniProt P70196 1-530) MSLLNCENSCGSSQSSSDCCAAMAASCSAAVKDDSVSGSASTGNLSSSFMEEIQGYDVEFDPPLESKYECPICLMALREAVQTPCGHRFCKACIIKSIRDAGHKCPVDNEILLENQLFPDNFAKREILSLTVKCPNKGCLQKMELRHLEDHQVHCEFALVNCPQCQRPFQKCQVNTHIIEDCPRRQVSCVNCAVSMAYEEKEIHDQSCPLANIICEYCGTILIREQMPNHYDLDCPTAPIPCTFSVFGCHEKMQRNHLARHLQENTQLHMRLLAQAVHNVNLALRPCDAASPSRGCRPEDPNYEETIKQLESRLVRQDHQIRELTAKMETQSMYVGELKRTIRTLEDKVAEMEAQQCNGIYIWKIGNFGMHLKSQEEERPVVIHSPGFYTGRPGYKLCMRLHLQLPTAQRCANYISLFVHTMQGEYDSHLPWPFQGTIRLTILDQSEALIRQNHEEVMDAKPELLAFQRPTIPRNPKGFGYVTFMHLEALRQGTFIKDDTLLVRCEVSTRFDMGGLRKEGFQPRSTDAGV",binding,[1],binds weakly
same,binding,[2],no binding (condition: without co-expressed MAL)
